Laboratory results reported in patent publication US20260193659A1, “METHODS FOR TREATING MONGE'S DISEASE” (The Regents of the University of California, priority 2022, published 2026).
“Also recorded” adds a separate entry of the source. For some of these results: For at least one compound, name, drawing or mass did not settle the structure. Some results were stated once for a whole list of compounds, not compound by compound.

Assays:
[1] = tested on: CMS cells; assay: BFU-E colony forming assay with CK2 inhibitors, iPSC-derived CD34+ cells under hypoxia; type: cell-based, human; conditions: for BFU-E colonies (erythroid colony numbers): CMS iPSC-derived CD34+ cells, 5% O2, 14 days, TBB 25 μM, 50 µM, 100 μM, CX4945 2.5, 5, 10 μM; for reduction in BFU colonies: cells of the CMS patients
Procedure: (§1) CD34^+ cells were isolated from iPSC-derived EBs as follows. After 7 days of differentiation, EBs were harvested by spinning at 400 g for 10 minutes. After centrifugation, EBs were dissociated into single cells using Accutase treatment for 10 minutes and then filtered through a 60 μm cell strainer (Falcon). CD34^+ cells were isolated from this cell suspension using EasySep Human CD34 Positive Selection Kit 11 ([…] Technologies, 17856) per the manufacturer's instructions. These iPSC-derived CD34+ cells were used in subsequent qPCR and colony-forming assays.
CD34^+ cells used in this assay were derived from iPSC-generated EBs as described herein. CD34^+ cells were plated at a density of 10^5 cells per 35 mm dish combined with MethoCult H4034 Optimum Media ([…] Technologies, 04044) and 2% FBS. Dishes were incubated at 37° C. in an incubator with 5% CO2 and 5% O2 for 14 days, at which time colonies were scored for BFU-E and CFU-granulocyte, erythrocyte, monocyte, megakaryocyte (CFU-GEMM).
TBB (catalog ab120988) and CX4945 (catalog S2248) were purchased from Abcam and Selleckcam, respectively. Dose-response experiments were performed with the inhibitors using the following concentrations in the colony forming assays using iPSC-derived CD34^+ cells as described herein: TBB (25 μM, 50 µM, and 100 μM) and CX4945 (2.5 μM, 5 μM, and 10 μM).

[2] = tested on: LINC02228 (HIKER); assay: KD efficiency of LINC02228 (HIKER) by ASO, qPCR; type: cell-based, human; conditions: CMS cells
Procedure: Locked nucleic acids (LNAs) targeting HIKER/LINC02228 and LINC00431 were designed and synthesized by Exiqon. The most efficient ASO for each LNA was initially tested in the pilot experiment with and without transfection reagent (Lipofectamine 3000. Life Technologies. L3000-008) in a dose-response experiment at a concentration of 10 nM, 25 nM, 50 nM, and 100 nM. The uptake and the effect of ASO were monitored by qPCR at various stages (iPSC stage and CD34+ cells isolated from EBs). For both lncRNAs, the optimal delivery for all the stages was at the 50 nM concentration without the transfection reagent.
as §1

Compound	BFU-E colonies (erythroid colony numbers) [1]	BFU-E colonies (erythroid colony numbers) ([1]; listed as CX4945)	reduction in BFU colonies [1]	KD efficiency of LINC02228 (HIKER) [2]
O=C(O)c1ccc2c(c1)nc(Nc1cccc(Cl)c1)c1ccncc12 [CX-4945, silmitasertib]	significant changes were observed in the colony numbers in a dose-dependent manner; also recorded: Drastic effect	decreases BFU-E colonies more drastically in the CMS cells in a dose-response manner	50-75%	
Brc1c(Br)c(Br)c2n[nH]nc2c1Br [TBB]			50-75%	
ASO-1: LNA gapmer ASO targeting HIKER/LINC02228, SEQ ID NO 1: G*G*T*T*G*C*T*T*T*C*A*G*G*C*C*C*C*T*T*A (antisense GGTTGCTTTCAGGCCCCTTA; all phosphorothioate, sugars by position and methylation of C not given here; LNA gapmer)				> 80%
ASO-2: LNA gapmer ASO targeting HIKER/LINC02228, SEQ ID NO 2: C*T*T*C*A*C*C*A*T*G*C*T*T*G*T*G*C*T*C*T (antisense CTTCACCATGCTTGTGCTCT; all phosphorothioate, sugars by position and methylation of C not given here; LNA gapmer)				> 80%
ASO-3: LNA gapmer ASO targeting HIKER/LINC02228, SEQ ID NO 3: G*C*C*T*T*C*C*G*G*G*C*C*G*T*C*C*A*C*G*C (antisense GCCTTCCGGGCCGTCCACGC; all phosphorothioate, sugars by position and methylation of C not given here; LNA gapmer)				> 80%
